According to patent US6881395:
These are yes or no findings as the source states them, for the method shown. Some entries that bind do so weakly or less than the wild type.

By UniProt entry, the sequences of proteins in these tests, tags left out. Where a name states a change or a piece, a line headed by the entry shows the natural chain unless it says otherwise. Chains listed by the source or under a name are the forms on record and can include a tag or linker.
UniProt Q15389: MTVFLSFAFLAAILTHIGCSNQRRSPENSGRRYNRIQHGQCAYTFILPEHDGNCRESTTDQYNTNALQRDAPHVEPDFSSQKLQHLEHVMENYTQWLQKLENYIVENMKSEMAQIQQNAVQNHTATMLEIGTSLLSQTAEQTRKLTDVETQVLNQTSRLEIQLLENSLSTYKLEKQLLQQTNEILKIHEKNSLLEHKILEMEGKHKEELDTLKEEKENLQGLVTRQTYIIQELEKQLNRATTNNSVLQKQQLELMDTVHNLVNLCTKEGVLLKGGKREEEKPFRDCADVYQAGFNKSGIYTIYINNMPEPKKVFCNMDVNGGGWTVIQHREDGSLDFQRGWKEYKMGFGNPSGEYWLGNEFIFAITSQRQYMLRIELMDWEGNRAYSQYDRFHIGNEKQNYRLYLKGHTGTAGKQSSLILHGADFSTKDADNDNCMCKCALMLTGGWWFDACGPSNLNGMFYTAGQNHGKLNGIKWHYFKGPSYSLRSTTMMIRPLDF
UniProt O15123: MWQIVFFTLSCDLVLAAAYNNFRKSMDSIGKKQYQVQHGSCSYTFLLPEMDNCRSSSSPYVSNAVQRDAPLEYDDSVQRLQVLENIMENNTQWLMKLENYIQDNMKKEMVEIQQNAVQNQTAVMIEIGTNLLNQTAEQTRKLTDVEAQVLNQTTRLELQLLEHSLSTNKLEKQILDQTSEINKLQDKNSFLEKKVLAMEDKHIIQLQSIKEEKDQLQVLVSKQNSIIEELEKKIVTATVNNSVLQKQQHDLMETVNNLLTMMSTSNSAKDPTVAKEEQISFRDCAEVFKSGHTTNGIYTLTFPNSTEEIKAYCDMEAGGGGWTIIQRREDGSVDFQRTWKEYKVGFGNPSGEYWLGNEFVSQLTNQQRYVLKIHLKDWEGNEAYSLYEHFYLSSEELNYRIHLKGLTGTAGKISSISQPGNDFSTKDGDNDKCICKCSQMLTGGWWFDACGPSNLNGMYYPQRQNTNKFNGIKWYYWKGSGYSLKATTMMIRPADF
TIE-2 receptorbody (r TIE-2 ecto/h IgG1 Fc) (A0ABK0L6J5, form named): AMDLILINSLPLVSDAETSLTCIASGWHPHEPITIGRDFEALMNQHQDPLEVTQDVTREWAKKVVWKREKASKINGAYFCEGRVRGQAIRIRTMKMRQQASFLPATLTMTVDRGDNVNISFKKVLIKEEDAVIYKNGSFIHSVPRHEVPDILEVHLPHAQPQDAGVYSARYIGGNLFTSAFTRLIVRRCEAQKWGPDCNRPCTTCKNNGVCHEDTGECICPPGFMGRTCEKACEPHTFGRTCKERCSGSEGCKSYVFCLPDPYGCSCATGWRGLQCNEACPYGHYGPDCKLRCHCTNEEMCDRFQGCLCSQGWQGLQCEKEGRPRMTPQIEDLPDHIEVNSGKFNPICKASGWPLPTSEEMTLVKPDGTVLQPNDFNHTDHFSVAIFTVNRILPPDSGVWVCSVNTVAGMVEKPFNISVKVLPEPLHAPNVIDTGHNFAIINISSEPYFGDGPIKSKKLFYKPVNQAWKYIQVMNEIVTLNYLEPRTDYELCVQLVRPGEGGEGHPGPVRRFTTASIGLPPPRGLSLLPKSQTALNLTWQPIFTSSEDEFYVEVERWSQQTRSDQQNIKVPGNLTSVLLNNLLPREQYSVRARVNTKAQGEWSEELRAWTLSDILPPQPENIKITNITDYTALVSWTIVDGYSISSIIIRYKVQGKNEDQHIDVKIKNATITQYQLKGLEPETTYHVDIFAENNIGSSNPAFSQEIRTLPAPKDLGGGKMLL

What was measured:
[1] = biological target: TIE-2 ligand 1 (TL1) (human) (UniProt Q15389); test: quantitative cell-free binding assay (ELISA)
[2] = biological target: TIE-2 ligand 1 (TL1) (human) (UniProt Q15389); test: cell-free ELISA; ligand coated, receptorbody titrated, AP-tagged anti-human Fc detection
[3] = biological target: TIE-2 ligand 2 (TL2) (human) (UniProt O15123); test: as above

Measured: binding

TIE-2 receptorbody (r TIE-2 ecto/h IgG1 Fc) (from UniProt A0ABK0L6J5 19-740) (Fc fusion)
binds: all assays above
